# Measurements as given in patent US8063071B2 (GlaxoSmithKline, LLC, priority 2007, dated 2011).
# Some of these results come from one statement about several compounds together.
# Assays:
# [1] = tested on: human monocyte stimulated cytokine production (TNF-α); test: Monocyte assay (LPS-stimulated TNF-α production); assay type: cell-based; settings: 200 ng/mL LPS, 24 hrs, TNF-α by ELISA
# Procedure: Effect of IKK-β inhibition on human monocyte stimulated cytokine production was assessed as follows: Monocytes were isolated from heparinized whole blood by Ficoll gradient, followed by purification of CD14+ cells using MACS magnetic cell separation beads. Isolated monocytes were then adhered to 96-well culture plates at 1×10^6 cells/mL in RPMI 1640 10% FBS (JRH Biosciences, Lenexa Kans.) for 2 h. Test compounds are added to the wells 30 minutes prior to stimulation with a final vehicle concentration of 0.1% DMSO. Monocytes were activated by the addition of 200 ng/mL endotoxin (LPS; E. coli serotype 026:B6)(Sigma, St. Louis, Mo.) and incubated for 24 hrs at 37 C. Cell-free supernates were analyzed by ELISA for TNF-α using Pharmingen matched pair Abs. Viability of the cells was determined by 10% trypan blue exclusion.
# [2] = biological target: T1, Recombinant human IKKβ (residues 1-737) (Homo sapiens, UniProt O14920); test: IKK2 assay (TR-FRET); assay type: biochemical; settings: ATP 1 μM final
# T1 construct: Recombinant human IKKβ (residues 1-737); GST (C); made in house
# T1 sequence (O14920 1-737): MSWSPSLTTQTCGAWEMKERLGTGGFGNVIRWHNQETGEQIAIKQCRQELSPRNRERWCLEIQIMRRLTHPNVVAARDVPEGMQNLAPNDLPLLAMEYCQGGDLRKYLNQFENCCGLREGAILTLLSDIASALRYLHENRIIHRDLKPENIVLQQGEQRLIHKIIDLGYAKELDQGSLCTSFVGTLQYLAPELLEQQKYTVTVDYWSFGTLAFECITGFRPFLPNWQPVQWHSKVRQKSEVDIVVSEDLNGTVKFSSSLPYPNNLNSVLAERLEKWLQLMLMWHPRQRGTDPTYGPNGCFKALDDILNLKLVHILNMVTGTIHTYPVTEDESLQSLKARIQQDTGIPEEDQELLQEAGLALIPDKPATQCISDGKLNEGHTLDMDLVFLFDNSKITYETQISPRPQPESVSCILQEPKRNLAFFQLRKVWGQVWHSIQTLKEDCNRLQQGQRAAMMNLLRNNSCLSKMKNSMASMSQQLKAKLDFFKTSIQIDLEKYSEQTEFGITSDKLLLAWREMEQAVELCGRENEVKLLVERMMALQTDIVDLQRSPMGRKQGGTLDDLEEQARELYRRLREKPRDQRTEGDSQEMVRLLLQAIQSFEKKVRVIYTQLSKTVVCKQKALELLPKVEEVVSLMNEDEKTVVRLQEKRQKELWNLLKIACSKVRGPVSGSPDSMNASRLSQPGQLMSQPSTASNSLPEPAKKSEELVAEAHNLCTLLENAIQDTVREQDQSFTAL
# Procedure: Recombinant human IKKβ (residues 1-737) was expressed in baculovirus as a C-terminal GST-tagged fusion protein, and its activity was assessed using a time-resolved fluorescence resonance energy transfer (TR-FRET) assay. Briefly, IKK2 (0.5 nM-5 nM final) diluted in assay buffer (50 mM HEPES, 10 mM MgCl2, 1 mM CHAPS pH 7.4 with 1 mM DTT and 0.01% w/v BSA) was added to wells containing various concentrations of compound or DMSO vehicle (1.7% final). The reaction was initiated by the addition of GST-IB substrate (25 nM final)/ATP (1 μM final), in a total volume of 6 μl. The reaction was incubated for 15 minutes at room temperature, then terminated by the addition of 3 μl of detection reagent in buffer containing 50 mM EDTA (100 mM HEPES pH 7.4, 150 mM NaCl, 50 mM EDTA and 0.01% w/v BSA) containing antiphosphoserine-IB-32/36 monoclonal antibody 12C2 (Cell Signalling Technology, Beverly Mass., USA) labelled with W-1024 europium chelate (Wallac OY, Turku, Finland), and an APC-labelled anti-GST antibody (Prozyme, San Leandro, Calif., USA) was added and the reaction was further incubated for 60 minutes at room temperature. The degree of phosphorylation of GST-IB was measured using a BMG Rubystar plate reader (BMG Labtech, Aylesbury, UK) as a ratio of specific 665 nm energy transfer signal to reference europium 620 nm signal.
substance,measurement,setting,value
5-(1-{2-[(cyclopentylmethyl)amino]ethyl}-1H-pyrazol-4-yl)-3-[1-(ethylsulfonyl)-4-piperidinyl]-1H-indole-7-carboxamide trifluoroacetate [Example 261],IC50,[1],> 1000 nM
same,pIC50 against IKK2,[2],≥ 5.0
